According to the supplement of paper PMC12067093, “Discovery and optimisation of a covalent ligand for TRIM25 and its application to targeted protein ubiquitination” (Chemical Science, 2025):
This is one part of the list.

Sequences of proteins named here, by UniProt entry; tags and fusion partners are left off. A change or cut given only in a name is not applied to a line headed by its entry.
UniProt Q9UNQ2: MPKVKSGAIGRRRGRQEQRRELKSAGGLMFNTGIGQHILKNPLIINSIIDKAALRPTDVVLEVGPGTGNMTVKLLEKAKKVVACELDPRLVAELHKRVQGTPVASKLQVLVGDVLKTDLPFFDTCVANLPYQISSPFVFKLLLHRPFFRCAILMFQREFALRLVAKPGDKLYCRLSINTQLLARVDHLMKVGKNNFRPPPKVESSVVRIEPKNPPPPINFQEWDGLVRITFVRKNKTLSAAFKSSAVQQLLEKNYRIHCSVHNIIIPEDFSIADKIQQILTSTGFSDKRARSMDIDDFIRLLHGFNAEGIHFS
UniProt P26358: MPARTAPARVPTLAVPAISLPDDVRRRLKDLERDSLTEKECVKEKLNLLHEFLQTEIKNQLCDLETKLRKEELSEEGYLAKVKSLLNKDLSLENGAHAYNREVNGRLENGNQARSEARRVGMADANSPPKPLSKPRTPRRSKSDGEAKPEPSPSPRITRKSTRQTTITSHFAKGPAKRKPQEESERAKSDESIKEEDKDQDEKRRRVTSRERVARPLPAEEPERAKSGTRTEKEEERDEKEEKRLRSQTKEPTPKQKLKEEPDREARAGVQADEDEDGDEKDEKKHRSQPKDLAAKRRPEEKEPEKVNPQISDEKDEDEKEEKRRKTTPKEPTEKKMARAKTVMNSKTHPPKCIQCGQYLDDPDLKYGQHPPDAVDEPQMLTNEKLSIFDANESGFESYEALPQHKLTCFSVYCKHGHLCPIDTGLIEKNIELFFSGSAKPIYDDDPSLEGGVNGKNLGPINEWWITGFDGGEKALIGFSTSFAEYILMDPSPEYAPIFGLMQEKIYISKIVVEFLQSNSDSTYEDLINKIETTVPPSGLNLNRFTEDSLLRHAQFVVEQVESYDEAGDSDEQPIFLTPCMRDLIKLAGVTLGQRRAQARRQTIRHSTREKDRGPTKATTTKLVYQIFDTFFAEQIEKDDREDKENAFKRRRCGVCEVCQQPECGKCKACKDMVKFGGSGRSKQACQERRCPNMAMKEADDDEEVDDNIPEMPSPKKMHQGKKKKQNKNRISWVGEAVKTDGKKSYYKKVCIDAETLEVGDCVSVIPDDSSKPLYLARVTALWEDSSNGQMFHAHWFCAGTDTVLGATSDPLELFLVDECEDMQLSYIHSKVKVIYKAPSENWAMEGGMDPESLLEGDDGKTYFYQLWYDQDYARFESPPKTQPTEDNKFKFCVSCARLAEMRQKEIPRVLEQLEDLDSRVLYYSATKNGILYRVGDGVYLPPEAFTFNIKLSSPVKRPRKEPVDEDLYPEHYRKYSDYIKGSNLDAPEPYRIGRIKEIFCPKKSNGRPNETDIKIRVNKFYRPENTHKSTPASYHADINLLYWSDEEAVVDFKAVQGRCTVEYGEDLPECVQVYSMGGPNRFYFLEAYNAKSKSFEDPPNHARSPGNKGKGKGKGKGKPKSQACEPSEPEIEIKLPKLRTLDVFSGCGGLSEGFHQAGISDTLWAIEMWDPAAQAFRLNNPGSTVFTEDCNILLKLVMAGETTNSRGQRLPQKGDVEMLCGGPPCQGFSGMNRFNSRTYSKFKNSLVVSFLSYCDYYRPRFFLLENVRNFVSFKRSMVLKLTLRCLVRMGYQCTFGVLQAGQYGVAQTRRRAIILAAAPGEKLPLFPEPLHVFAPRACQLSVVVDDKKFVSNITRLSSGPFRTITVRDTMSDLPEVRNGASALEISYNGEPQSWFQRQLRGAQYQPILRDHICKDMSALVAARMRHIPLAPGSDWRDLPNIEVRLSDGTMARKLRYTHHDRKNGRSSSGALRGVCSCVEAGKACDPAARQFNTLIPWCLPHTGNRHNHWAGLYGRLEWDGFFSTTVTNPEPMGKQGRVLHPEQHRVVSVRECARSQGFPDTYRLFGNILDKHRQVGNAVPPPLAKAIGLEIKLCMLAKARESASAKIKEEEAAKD
UniProt O60832: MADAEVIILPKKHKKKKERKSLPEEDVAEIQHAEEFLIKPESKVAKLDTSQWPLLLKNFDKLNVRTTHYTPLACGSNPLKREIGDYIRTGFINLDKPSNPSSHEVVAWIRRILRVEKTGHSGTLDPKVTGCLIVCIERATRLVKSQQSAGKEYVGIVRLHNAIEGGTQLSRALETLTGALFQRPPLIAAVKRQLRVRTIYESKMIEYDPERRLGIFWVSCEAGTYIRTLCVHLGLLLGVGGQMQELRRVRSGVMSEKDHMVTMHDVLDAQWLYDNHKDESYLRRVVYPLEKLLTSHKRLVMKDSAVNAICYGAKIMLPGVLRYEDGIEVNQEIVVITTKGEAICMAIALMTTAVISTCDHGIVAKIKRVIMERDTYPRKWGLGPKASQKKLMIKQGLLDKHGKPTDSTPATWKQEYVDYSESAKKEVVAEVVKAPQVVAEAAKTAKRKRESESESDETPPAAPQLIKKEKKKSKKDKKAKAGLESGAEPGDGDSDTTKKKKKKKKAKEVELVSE
UniProt O43143: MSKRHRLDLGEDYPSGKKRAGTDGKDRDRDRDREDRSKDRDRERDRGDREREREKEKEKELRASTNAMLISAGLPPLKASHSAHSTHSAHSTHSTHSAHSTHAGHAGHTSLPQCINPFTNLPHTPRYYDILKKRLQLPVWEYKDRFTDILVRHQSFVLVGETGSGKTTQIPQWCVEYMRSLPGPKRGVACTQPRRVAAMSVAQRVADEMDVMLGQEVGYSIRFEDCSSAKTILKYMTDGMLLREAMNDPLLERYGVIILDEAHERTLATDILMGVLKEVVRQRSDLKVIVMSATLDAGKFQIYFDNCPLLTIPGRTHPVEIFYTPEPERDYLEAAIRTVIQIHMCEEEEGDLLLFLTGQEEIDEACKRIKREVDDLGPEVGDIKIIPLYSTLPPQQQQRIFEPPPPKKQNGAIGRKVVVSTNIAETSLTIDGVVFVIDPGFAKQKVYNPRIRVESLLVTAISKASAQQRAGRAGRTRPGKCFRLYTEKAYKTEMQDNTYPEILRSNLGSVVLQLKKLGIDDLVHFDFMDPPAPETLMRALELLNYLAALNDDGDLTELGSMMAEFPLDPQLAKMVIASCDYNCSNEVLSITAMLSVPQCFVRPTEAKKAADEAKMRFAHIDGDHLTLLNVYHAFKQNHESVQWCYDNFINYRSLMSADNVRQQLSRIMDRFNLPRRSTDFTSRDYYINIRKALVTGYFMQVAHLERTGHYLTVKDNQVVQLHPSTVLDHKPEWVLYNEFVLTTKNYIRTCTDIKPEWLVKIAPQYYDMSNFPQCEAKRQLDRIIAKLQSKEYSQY
UniProt Q8IYB7: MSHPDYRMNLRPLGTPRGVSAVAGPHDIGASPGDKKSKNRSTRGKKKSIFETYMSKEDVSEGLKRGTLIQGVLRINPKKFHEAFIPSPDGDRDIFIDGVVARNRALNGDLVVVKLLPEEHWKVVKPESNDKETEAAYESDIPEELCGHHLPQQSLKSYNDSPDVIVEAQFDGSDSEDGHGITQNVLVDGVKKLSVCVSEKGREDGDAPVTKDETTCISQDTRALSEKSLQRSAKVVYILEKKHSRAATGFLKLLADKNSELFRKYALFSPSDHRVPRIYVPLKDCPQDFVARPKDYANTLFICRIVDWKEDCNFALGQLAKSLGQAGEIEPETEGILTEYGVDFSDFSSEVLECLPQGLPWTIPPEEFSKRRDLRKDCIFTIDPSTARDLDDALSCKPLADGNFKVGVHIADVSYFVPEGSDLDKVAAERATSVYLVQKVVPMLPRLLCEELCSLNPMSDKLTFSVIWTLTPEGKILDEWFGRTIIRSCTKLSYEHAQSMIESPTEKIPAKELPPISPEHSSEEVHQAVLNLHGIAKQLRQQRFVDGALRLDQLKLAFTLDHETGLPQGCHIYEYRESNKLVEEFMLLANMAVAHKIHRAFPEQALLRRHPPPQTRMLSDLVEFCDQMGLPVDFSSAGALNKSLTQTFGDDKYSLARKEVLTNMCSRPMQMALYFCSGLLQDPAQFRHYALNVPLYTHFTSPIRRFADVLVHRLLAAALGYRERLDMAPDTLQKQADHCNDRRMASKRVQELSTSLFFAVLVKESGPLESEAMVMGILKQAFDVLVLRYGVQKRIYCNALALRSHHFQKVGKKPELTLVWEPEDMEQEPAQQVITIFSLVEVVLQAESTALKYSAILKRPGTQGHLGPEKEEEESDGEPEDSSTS
UniProt O60879: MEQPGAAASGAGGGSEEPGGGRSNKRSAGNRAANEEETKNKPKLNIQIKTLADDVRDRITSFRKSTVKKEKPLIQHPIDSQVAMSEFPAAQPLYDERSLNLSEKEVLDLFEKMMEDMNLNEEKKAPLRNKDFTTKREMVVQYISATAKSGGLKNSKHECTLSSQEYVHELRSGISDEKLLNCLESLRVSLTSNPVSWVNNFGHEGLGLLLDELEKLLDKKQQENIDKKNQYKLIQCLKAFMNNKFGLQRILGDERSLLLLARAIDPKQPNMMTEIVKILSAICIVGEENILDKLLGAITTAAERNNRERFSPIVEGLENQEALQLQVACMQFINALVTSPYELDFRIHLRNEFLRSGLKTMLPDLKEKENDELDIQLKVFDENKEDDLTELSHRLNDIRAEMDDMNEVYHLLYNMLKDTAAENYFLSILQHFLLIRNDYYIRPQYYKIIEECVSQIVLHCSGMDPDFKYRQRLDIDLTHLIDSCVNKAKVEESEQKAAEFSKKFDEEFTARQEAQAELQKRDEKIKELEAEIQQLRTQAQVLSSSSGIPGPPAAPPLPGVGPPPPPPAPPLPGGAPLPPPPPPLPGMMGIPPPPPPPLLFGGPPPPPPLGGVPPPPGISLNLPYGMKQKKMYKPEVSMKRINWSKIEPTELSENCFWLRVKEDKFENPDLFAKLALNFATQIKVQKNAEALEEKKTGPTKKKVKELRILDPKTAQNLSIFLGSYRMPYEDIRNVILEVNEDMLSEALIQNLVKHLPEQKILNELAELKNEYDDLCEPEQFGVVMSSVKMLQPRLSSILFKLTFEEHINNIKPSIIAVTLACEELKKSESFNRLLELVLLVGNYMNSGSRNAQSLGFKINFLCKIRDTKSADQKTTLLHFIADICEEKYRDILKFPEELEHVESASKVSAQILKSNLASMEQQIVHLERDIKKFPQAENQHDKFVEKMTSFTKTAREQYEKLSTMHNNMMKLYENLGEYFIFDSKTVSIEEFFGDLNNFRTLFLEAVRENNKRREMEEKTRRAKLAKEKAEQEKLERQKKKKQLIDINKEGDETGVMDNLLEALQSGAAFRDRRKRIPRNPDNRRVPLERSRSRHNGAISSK
UniProt Q08211, whole entry, looked up: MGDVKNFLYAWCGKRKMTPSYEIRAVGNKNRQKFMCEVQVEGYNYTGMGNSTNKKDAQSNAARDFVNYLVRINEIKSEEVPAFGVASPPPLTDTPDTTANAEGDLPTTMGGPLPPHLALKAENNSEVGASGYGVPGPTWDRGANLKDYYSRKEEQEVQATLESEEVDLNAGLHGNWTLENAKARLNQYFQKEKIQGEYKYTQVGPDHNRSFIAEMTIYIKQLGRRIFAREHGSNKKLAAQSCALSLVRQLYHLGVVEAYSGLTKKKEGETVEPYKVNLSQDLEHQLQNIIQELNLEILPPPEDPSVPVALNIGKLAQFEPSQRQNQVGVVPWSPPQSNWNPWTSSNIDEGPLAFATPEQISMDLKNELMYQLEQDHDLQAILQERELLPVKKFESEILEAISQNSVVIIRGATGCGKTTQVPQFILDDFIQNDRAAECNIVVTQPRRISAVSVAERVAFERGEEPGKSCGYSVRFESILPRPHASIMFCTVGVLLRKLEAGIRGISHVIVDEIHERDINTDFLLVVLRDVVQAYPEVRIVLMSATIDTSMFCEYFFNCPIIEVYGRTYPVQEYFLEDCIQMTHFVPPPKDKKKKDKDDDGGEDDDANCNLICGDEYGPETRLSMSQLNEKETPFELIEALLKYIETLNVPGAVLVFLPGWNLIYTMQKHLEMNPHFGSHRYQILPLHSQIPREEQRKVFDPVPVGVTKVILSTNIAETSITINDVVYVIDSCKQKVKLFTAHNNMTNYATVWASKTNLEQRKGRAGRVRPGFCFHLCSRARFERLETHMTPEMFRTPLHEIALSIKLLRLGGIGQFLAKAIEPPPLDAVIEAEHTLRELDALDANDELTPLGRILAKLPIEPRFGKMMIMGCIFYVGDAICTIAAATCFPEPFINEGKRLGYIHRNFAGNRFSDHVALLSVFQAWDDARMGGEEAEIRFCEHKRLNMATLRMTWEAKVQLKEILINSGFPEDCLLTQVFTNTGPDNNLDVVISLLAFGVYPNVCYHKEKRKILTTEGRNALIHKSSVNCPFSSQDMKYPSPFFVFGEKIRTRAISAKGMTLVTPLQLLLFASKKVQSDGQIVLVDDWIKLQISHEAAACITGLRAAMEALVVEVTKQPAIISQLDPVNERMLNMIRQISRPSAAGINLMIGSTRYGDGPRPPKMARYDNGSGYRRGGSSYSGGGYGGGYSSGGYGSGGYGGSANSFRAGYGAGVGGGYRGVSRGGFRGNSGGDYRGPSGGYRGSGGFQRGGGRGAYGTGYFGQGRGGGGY

Compound: Cc1cc(ccc1-c1ccccc1)C(=O)N1CCCN(CC1)C(=O)CCl [compound 10]
Test: probe-labelled cysteine peptide fold change vs DMSO (competition) (log2 fold change); higher = less target engagement (more negative = stronger competition)
Conditions: THP-1, incubation time: 4 h
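Note: competitive profiling in live THP-1 cells: cysteine peptides tagged with an iodoacetamide desthiobiotin (IA-DTB) probe, intensity after compound treatment relative to DMSO-treated cells.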

| Target | probe-labelled cysteine peptide fold change (10 µM) | probe-labelled cysteine peptide fold change (50 µM) |
| --- | --- | --- |
| DMAP1_Q9NPF5_199_YYHICAK (UniProt Q9NPF5) | 0.0642 | 0.147 |
| DIEXF_Q68CQ4_717_ATNRGEEATWTCTVLYSK (UniProt Q68CQ4) | 0.161 | 0.124 |
| DLG4_P78352_562_FGSCVPHTTRPK (UniProt P78352) | -0.119 | -0.126 |
| DNAJA1_P31689_177_IHQIGPGMVQQIQSVCMECQGHGER (UniProt P31689) | 0.00655 | 0.253 |
| DHX36_Q9H2U1_234_ELVNLIDNHQVTVISGETGCGK (UniProt Q9H2U1) | 0.173 | 0.0357 |
| DIMT1_Q9UNQ2_150_CAILMFQR (UniProt Q9UNQ2) | -0.227 | 0.381 |
| DNAJC11_Q9NVH1_38_LCMLYHPDK (UniProt Q9NVH1) | 0.0505 | -0.135 |
| DNAJC11_Q9NVH1_494_VIDVTVPLQCLVK (UniProt Q9NVH1) | 0.174 | 0.226 |
| DIAPH1_O60610_1027_MTLLHFLAELCENDYPDVLK (UniProt O60610) | 0.0966 | 0.302 |
| DIDO1_Q9BTC0_1079_AYPVSGCFDYLSEDLPDTIHIGGR (UniProt Q9BTC0) | -0.256 | 0.362 |
| DNAJC2_Q99543_26_GTAITHALTSASTLCQVEPVGR (UniProt Q99543) | -0.0409 | -0.201 |
| DMXL1_Q9Y485_458_ELGCDK (UniProt Q9Y485) | -0.299 | -0.689 |
| DNMT1_P26358_1339_ACQLSVVVDDK (UniProt P26358) | 0.0583 | -0.641 |
| DHX37_Q8IY37_766_LSCPITALGR (UniProt Q8IY37) | -0.0307 | -0.228 |
| DKC1_O60832_74_TTHYTPLACGSNPLKR (UniProt O60832) | -0.0751 | -0.244 |
| DNAJC13_O75165_2181_SLQYGEQVNEILCR (UniProt O75165) | 0.0495 | 0.24 |
| DNAJA1_P31689_149+150+153_GAVECCPNCR (UniProt P31689) | 0.00355 | -0.922 |
| DHX38_Q92620_27_GDTSEDASIHRLEGTDLDCQVGGLICK (UniProt Q92620) | 0.122 | -0.362 |
| DIDO1_Q9BTC0_455_CGAQAGIK (UniProt Q9BTC0) | -0.139 | -0.533 |
| DIS3L_Q8TF46_88_GIIFMQTACQAVQHQR (UniProt Q8TF46) | -0.183 | 0.0776 |
| DNAJB11_Q9UBS4_196_FQMTQEVVCDECPNVK (UniProt Q9UBS4) | 0.0812 | 0.148 |
| DIP2A_Q14689_934_FLEGTLHPCNVLMCPHTCVTNLPK (UniProt Q14689) | 0.192 | 0.136 |
| DNAJA1_P31689_261_RGEDLFMCMDIQLVEALCGFQKPISTLDNR (UniProt P31689) | 0.262 | -0.27 |
| DNAJA2_O60884_308_VIEPGCVR (UniProt O60884) | 0.117 | 0.0681 |
| DHX15_O43143_190_RGVACTQPR (UniProt O43143) | -0.0431 | 0.0597 |
| DNAJB12_Q9NXW2_363_MGTPSCSR (UniProt Q9NXW2) | -0.312 | -0.0693 |
| DNMT1_P26358_1499_QFNTLIPWCLPHTGNR (UniProt P26358) | 0.00655 | -0.0976 |

| Target | probe-labelled cysteine peptide fold change (10 µM) | probe-labelled cysteine peptide fold change (50 µM) |
| --- | --- | --- |
| DLAT_P10515_586_NFSAIINPPQACILAIGASEDK (UniProt P10515) | 0.0808 | 0.123 |
| DNAJA4_Q8WW22_272_IQLSEALCGFKK (UniProt Q8WW22) | -0.0485 | -0.0843 |
| DNM1L_O00429_361_YIETSELCGGAR (UniProt O00429) | -0.306 | -0.295 |
| DHTKD1_Q96HY7_429_DVIIDLLCYR (UniProt Q96HY7) | 0.0421 | 0.211 |
| DIS3L2_Q8IYB7_570_LAFTLDHETGLPQGCHIYEYR (UniProt Q8IYB7) | 0.0387 | 0.229 |
| DHX29_Q7Z478_1025_CNLGSPEDFLSK (UniProt Q7Z478) | 0.0191 | -0.143 |
| DNM2_P50570-3_427_CVDLVVSELATVIKK (UniProt P50570) | 0.333 | 0.424 |
| DIAPH2_O60879_775_NEYDDLCEPEQFGVVMSSVK (UniProt O60879) | -0.117 | 0.261 |
| DIAPH2_O60879_821_LTFEEHINNIKPSIIAVTLACEELK (UniProt O60879) | -0.0315 | 0.25 |
| DNAAF2_Q9NVR5_673_LQECSNSDQLQGK (UniProt Q9NVR5) | -0.0102 | 0.284 |
| DIS3_Q9Y2L1_483_HLCICSVDPPGCTDIDDALHCR (UniProt Q9Y2L1) | 0.0361 | -0.104 |
| DIAPH3_Q9NSV4_1125_SHYNINCNSTR (UniProt Q9NSV4) | -0.0609 | -0.171 |
| DIAPH1_O60610_796_LVAEDLSQDCFWTK (UniProt O60610) | -0.0959 | -0.0392 |
| DHX9_Q08211_773_VRPGFCFHLCSR (UniProt Q08211) | -0.117 | -0.00629 |
| DIP2A_Q14689_543_ALTQACGYSEAETLTNVLDFKR (UniProt Q14689) | 0.123 | 0.3 |
| DNAJA3_Q96EY1_292_GSIIISPCVVCR (UniProt Q96EY1) | 0.195 | 0.0821 |
| DHX30_Q7L2E3_786_CQSGFAYHLFPR (UniProt Q7L2E3) | -0.0274 | 0.051 |
| DNAJC9_Q8WXX5_150_GDMDQIMESVLCVQYTEEPR (UniProt Q8WXX5) | -0.127 | 0.172 |
| DHX9_Q08211_612_DKDDDGGEDDDANCNLICGDEYGPETR (UniProt Q08211) | -0.375 | 0.276 |
| DIS3_Q9Y2L1_533_GTTVYLCEK (UniProt Q9Y2L1) | 0.0392 | -0.236 |
| DIS3L2_Q8IYB7_216_DETTCISQDTR (UniProt Q8IYB7) | -0.209 | 0.0244 |
| DKC1_O60832_220_LGIFWVSCEAGTYIR (UniProt O60832) | -0.256 | 0.815 |
| DNAAF5_Q86Y56_773_MAAASTLVTWLQCVK (UniProt Q86Y56) | 0.204 | 0.159 |
| DHX15_O43143_774_IAPQYYDMSNFPQCEAK (UniProt O43143) | -0.0924 | 0.0483 |
| DMXL2_Q8TDJ6_62_HGNIQVSCVECSNQQGR (UniProt Q8TDJ6) | -0.248 | -0.602 |
| DHX33_Q9H6R0_518_FHCTEEILTIVSLLSVDSVLHNPPSR (UniProt Q9H6R0) | -0.109 | -0.689 |
| DMAC2_Q9NW81_194_GLACLHHLQNLR (UniProt Q9NW81) | -0.215 | 0.722 |
